Data set [1] concerns panelists. Nature of the data set: Sensory evaluation: taste of glutamic acid with addition of pyroglutamic acid. The class given is in vivo.
For data set [2] the following is noted: minimum concentration at which taste can be perceived; cited from earlier work.
The test system of data set [3] is panelists. Nature of the data set: Sensory evaluation: bitter taste of isoleucine with addition of pyroglutamic acid and theanine (1:50). The class given is in vivo. Particulars: for number of panelists who felt the bitter taste of isoleucine: ten panelists.
Data set [4] has as its system panelists. Description: Sensory evaluation: bitter taste of leucine with addition of pyroglutamic acid and theanine (1:50). The class given is in vivo. Conditions: no mixture added.
The subject of data set [5] is panelists. Description: Sensory evaluation: bitter taste of valine with addition of pyroglutamic acid and theanine. Particulars: for number of panelists who felt the bitter taste of valine: ten panelists.

Each structure is given as a SMILES string.

Turning to `N[C@@H](CCC(=O)O)C(=O)O` [glutamic acid], the “whether the taste of the glutamic acid solution was felt” value in data set [1] (glutamic acid 100 mg/100 ml, pyroglutamic acid 100 mg/100 ml, ten panelists) was “not felt”. Besides, the “threshold of glutamic acid” value in data set [1] (no pyroglutamic acid) came out at 5 mg/100 ml. The taste threshold in data set [2] was 5 mg/100 ml.
For `CC[C@H](C)[C@H](N)C(=O)O` [isoleucine], the “number of panelists who felt the bitter taste of isoleucine” value (“number … of isoleucine” below) was found to be 0 in data set [3] (isoleucine 50, pyroglutamic acid/theanine 0 (mg/100 ml)); 0 in data set [3] (isoleucine 50, pyroglutamic acid/theanine 1 (mg/100 ml)); 0 in data set [3] (isoleucine 50, pyroglutamic acid/theanine 10 (mg/100 ml)); 0 in data set [3] (isoleucine 50, pyroglutamic acid/theanine 50 (mg/100 ml)); 0 in data set [3] (isoleucine 50, pyroglutamic acid/theanine 100 (mg/100 ml)); 4 in data set [3] (isoleucine 90, pyroglutamic acid/theanine 1 (mg/100 ml)). Further, the “number … of isoleucine” value was 1 in data set [3] (isoleucine 90, pyroglutamic acid/theanine 10 (mg/100 ml)); 0 in data set [3] (isoleucine 90, pyroglutamic acid/theanine 100 (mg/100 ml)); 9 in data set [3] (isoleucine 200, pyroglutamic acid/theanine 0 (mg/100 ml)); 4 in data set [3] (isoleucine 200, pyroglutamic acid/theanine 1 (mg/100 ml)); 1 in data set [3] (isoleucine 200, pyroglutamic acid/theanine 10 (mg/100 ml)); 0 in data set [3] (isoleucine 200, pyroglutamic acid/theanine 50 (mg/100 ml)). Besides, the “number … of isoleucine” value in data set [3] (isoleucine 200, pyroglutamic acid/theanine 100 (mg/100 ml)) is 0; in data set [3] (isoleucine 500, pyroglutamic acid/theanine 0 (mg/100 ml)), 10; in data set [3] (isoleucine 500, pyroglutamic acid/theanine 1 (mg/100 ml)), 6; in data set [3] (isoleucine 500, pyroglutamic acid/theanine 10 (mg/100 ml)) it was 4; in data set [3] (isoleucine 500, pyroglutamic acid/theanine 50 (mg/100 ml)) it was 3. Besides, the “threshold (isoleucine solution)” value in data set [3] (no mixture added) is 90 mg/100 ml. Further, the taste threshold in data set [2] is recorded as 90 mg/100 ml.
As for `CC(C)C[C@H](N)C(=O)O` [leucine], the threshold of leucine in data set [4] turned out to be 380 mg/100 ml.
For `CC(C)[C@H](N)C(=O)O` [valine], the threshold of valine in data set [5] (no mixture added) is given as 150 mg/100 ml. In addition, the “number of panelists who felt the bitter taste of valine” value (“number … of valine” below) in data set [5] (valine 100, pyroglutamic acid/theanine 0 (mg/100 ml)) is 0; in data set [5] (valine 100, pyroglutamic acid/theanine 1 (mg/100 ml)) it was 0; in data set [5] (valine 100, pyroglutamic acid/theanine 10 (mg/100 ml)), 0; in data set [5] (valine 100, pyroglutamic acid/theanine 50 (mg/100 ml)), 0; in data set [5] (valine 100, pyroglutamic acid/theanine 100 (mg/100 ml)) it was 0; in data set [5] (valine 150, pyroglutamic acid/theanine 1 (mg/100 ml)), 2. Moreover, the “number … of valine” value in data set [5] (valine 150, pyroglutamic acid/theanine 50 (mg/100 ml)) is 0; in data set [5] (valine 150, pyroglutamic acid/theanine 100 (mg/100 ml)), 0; in data set [5] (valine 500, pyroglutamic acid/theanine 0 (mg/100 ml)) it was 10; in data set [5] (valine 500, pyroglutamic acid/theanine 1 (mg/100 ml)), 3; in data set [5] (valine 500, pyroglutamic acid/theanine 10 (mg/100 ml)) it was 1; in data set [5] (valine 500, pyroglutamic acid/theanine 50 (mg/100 ml)), 0. Further, the “number … of valine” value is listed as 0 in data set [5] (valine 500, pyroglutamic acid/theanine 100 (mg/100 ml)); 10 in data set [5] (valine 1000, pyroglutamic acid/theanine 0 (mg/100 ml)); 5 in data set [5] (valine 1000, pyroglutamic acid/theanine 1 (mg/100 ml)); 3 in data set [5] (valine 1000, pyroglutamic acid/theanine 10 (mg/100 ml)); 1 in data set [5] (valine 1000, pyroglutamic acid/theanine 50 (mg/100 ml)). For the same compound, the taste threshold in data set [2] is on record as 150 mg/100 ml.
